In the supplement of paper PMC10338343:
± gives the standard deviation. This is a selection; strong and weak results do not stand in their true shares. Many of these values have a large error.

What follows are sequences tested on MIWI (PIWIL1) piRISC loaded with Kctd7 piRNA (30 nt) (assay: pre-steady-state target cleavage rate (min^-1); MIWI and MILI are mouse PIWI proteins and EfPiwi is from a freshwater sponge; tags in brackets are library labels; higher = faster piRNA-guided slicing of the target). Conditions: guide: Kctd7 piRNA 5'p-UGUUAAUCUCUCAGAGAAGGUGACAGUGAU; auxiliary factor: 500 nM mouse GTSF1.
Procedure, shortened: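 Cleave-'n-Seq reactions paired 0.1 nM transcribed, DNA-blocked target RNA library with 1 nM active affinity-purified piRISC holding one synthetic guide, plus or minus 500 nM GTSF1 partner protein, in HEPES–potassium acetate buffer at 33 °C for 0–8 or 0–960 min. After sequencing of uncleaved targets and normalisation to depth and weakly complementary targets, the pre-steady-state cleavage rate was taken from a burst-and-steady-state fit. Three trials were pooled, and k3 was capped at 0.0001 min^-1.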

Sequence | pre-steady-state target cleavage rate
UAGUGACAGACCUUCUCUGUCAGAUUUUGA | 0.00158 ± 0.0072
UAGUGACAGUCCUUCUCUGACUGAUUAACA | 0.000327 ± 0.0094
UAGUGACAGUCCUUCUGACUCUCUAAUUGA [g15:g20:cont:t1A] | 0.000629 ± 0.012
UUCACUGUCACCUUCUCACUCUCUAAUUGA [g14:g29:cont:t1A] | 0.00129 ± 0.0072
UAGUGACACACCUUCUCUGAGUCAUAUUGA | 0.000121 ± 0.021
UAGUGAGUCACCUUCUCUGAGUCUUAUUGA | 0.00157 ± 0.0065
UAGUGACAGUGCUUCUCAGAGAGAUUAUCA | 0.00136 ± 0.0048
UAGUCUUUCACCUUCUCUGAGAGAUUAACA | 0.265 ± 0.015
UAGUGACAGACCUUCUCUGAGACAUUAACA | 0.039 ± 0.0076
UAGUCUGUCACCUCUCUGAGAGAUUAACA | 0.447 ± 0.048
UAGUGACUCACCUUCUCUGACUCAUUUUGA | 0.000535 ± 0.014
UAGUGACAGUGGAAGACUGAGAGUUUAACA | 0.000195 ± 0.016
UAGUGACAGACCUUCUCGAGAGAUUAACA | 0.00325 ± 0.0046
UAGUGACAGUGGAAGAGACAGAGAUUAAGA | 0.000114 ± 0.042
UAGUGACAGUCGAACUCUGAGAGAUUAACA | 0.000125 ± 0.035
UACACUGUCACCUUCUCUCUCAGAUUAACA | 0.00392 ± 0.0052
UAGUGACAGUGGAAGAGAGAGAGUUAAACA | 0.000409 ± 0.016
UUCAGUGUCACCUACUCUGAGAGAUUAACA | 0.509 ± 0.033
UAGACUGUCACCUUCUCUGUCUGAUUAUGA | 0.000549 ± 0.009
UAGUCUGUCACCUUCUCUCUCAGAUAUUGA | 0.000896 ± 0.01
UAGUGACAGUGCUUCUCUGAGAGUUAACA | 0.000181 ± 0.011
UUUACUGUCACCUUCUCUGAGAGAUUAACA | 0.708 ± 0.026

Sequence | pre-steady-state target cleavage rate
UUCACUGGUCACCUUCUCUGAGAGAUUAACA | 0.652 ± 0.034
UAGUGUGUCACCUUCUCUGACUGAUUAAGA | 0.000461 ± 0.013
UAGUGACAGACCUUCUCUGAGAGAUUUUGA | 0.00148 ± 0.0055
UAGUGACAGUCCAUCUCUGAGAGAUUAAGA | 0.00133 ± 0.0048
UAGUGACAGUCCUUCUGACAGAGAUUAACA | 0.000259 ± 0.02
UAGUGAGUGUGCUUCUCUGAGAGAUUUUGA | 0.000204 ± 0.031
UAGUGACAGACCUUCUCUCAGAGAUUAAGA | 0.00131 ± 0.0096
UAGUGACACACCUUCUCUGAGACUAUAAGA | 0.00025 ± 0.028
UAGUCUGUCACCUUCUCUGAGUCAUUUUGA | 0.00118 ± 0.0056
UUCACUGUCACCUUCUCACUGAGAUUAAGA | 0.0025 ± 0.0046
UAGUGACUCACCUUCUCUCUCAGAUUAAGA | 0.000475 ± 0.015
UACACUGUCCACCUUCUCUGAGAGAUUAACA | 0.496 ± 0.038
AUCACUGUCAUCUUCUCUGAGAGAUUAACA | 0.827 ± 0.041
UAGUGACAGUCCUUCAGUGAGAGAUUAACA | 0.00142 ± 0.0078
UAGUGACAGUGCUUCACUGAGAGAUUAUCA | 0.00301 ± 0.0042
UAGUGACAGUCCUUCUCUCUGAGAUUAAGA | 0.00057 ± 0.011
AUCACUGUCACCUUCUCUGACAGAUUUUGA | 0.004 ± 0.0045
UAGUGACAGUGGAAGAGAGAGAGAUAUUCA | 0.00049 ± 0.013
AUCCUGUCACCUUCUCUGAGAGAUUAACA | 0.744 ± 0.052
UACCACUGUCACCUUCUCUGAGAGAUUAACA | 0.773 ± 0.044
UAGUCUGUCACCUUCUCUGUCUGAUUAACA | 0.00112 ± 0.0067
UAGUGACACACCUUGUCUGAGAGAUUAUGA | 0.00305 ± 0.0035

Sequence | pre-steady-state target cleavage rate
UAGUGACAGACGUUCUGUGAGAGAUUAACA | 0.00265 ± 0.0051
UAGUGAGUCAGGUUCUCUGAGAGAUAUUGA | 0.000862 ± 0.0092
AUGACUGUCACCAUCUCUGAGAGAUUAACA | 0.817 ± 0.06
UAGACUGUCACCUUCUCUGAGGAGAUUAACA | 0.00216 ± 0.0026
UAGUGACAGUGGAAGAGACAGAGAAUUAACA | 0.000568 ± 0.01
UAGUGUGUGACCUUCUCUGAGAGAUAUUGA | 0.00329 ± 0.0036
UAGUGACAGACCUUCUCUGAGACAUUUACA | 0.00166 ± 0.0061
UAGUGACUCACCUUCUCUGAGUAGAUUAACA | 0.00106 ± 0.012
UAGUGACAGUGGAACUCUGACUCUAAUUGA [g11:g16:cont:t1A] | 0.00454 ± 0.0076
UAGUGAGAGACCUUCUCUGAGAGAUUUUGA | 0.00232 ± 0.0059
UUCUCUGUCACCUUCUCUGAGAGUUUAACA | 0.517 ± 0.07
UAGUGACAGACGUUGUCUGAGAGAUUAACA | 0.00188 ± 0.0047
UAGUGACAGUCCUUCUCUGAAGAGAUUAACA | 0.000286 ± 0.018
UAGUGACUCACCAAGUCUGAGAGAUAUUGA | < 0.0001
UAGUGACACACCUUCUCUGAGUGAUUAAGA | 0.00194 ± 0.0052
UAGUGACAGACCUUCUCUGAGUGAUUAUCA | 0.00325 ± 0.0062
UAGUGACUCACCUUCUCUGUGAGAUUUUGA | 0.00148 ± 0.0047
UAGUGACAGUCCUUCUCUGACAGUUUAACA | 0.000173 ± 0.014
AUCACUGAGACCUUCUCUGAGAGAUAUUGA | 0.0157 ± 0.0047
UAGUGACAGACCUUCUCUCUGAGAUUAACA | 0.000714 ± 0.011
UUCACUGUCACCUUCUCUGAGUAGAUUAACA | 0.0213 ± 0.0063
UAGUGAGUCACCUUCACUCAGAGAUUAACA | 0.0317 ± 0.0057

Part of the list above, in markdown.

| Sequence | pre-steady-state target cleavage rate |
| --- | --- |
| UAGUGACAGUGCUUCUCUGAGAGUUAACA | 0.000181 ± 0.011 |
| UUUACUGUCACCUUCUCUGAGAGAUUAACA | 0.708 ± 0.026 |
| UUCACUGGUCACCUUCUCUGAGAGAUUAACA | 0.652 ± 0.034 |
| UAGUGUGUCACCUUCUCUGACUGAUUAAGA | 0.000461 ± 0.013 |
